US20060276393A1, “Novel compositions for preventing and treating neurodegenerative and blood coagulation disorders” (Sirtris Pharmaceuticals, Inc., priority 2005, published 2006)
At least one compound was matched to its structure with a doubt left.

What was measured:
HDAC = settings: in vitro or in vivo, literature; cited from earlier work
recombinant human SIRT1 = biological target: T1, recombinant human SIRT1 (Homo sapiens, UniProt Q96EB6); assay: SIRT1 fluorescent deacetylation assay (p53-382 acetylated peptide); format: biochemical; settings: 25 μM NAD+, 25 μM p53-382 acetylated peptide, compounds at 100 μM
T1 sequence (Q96EB6 1-747): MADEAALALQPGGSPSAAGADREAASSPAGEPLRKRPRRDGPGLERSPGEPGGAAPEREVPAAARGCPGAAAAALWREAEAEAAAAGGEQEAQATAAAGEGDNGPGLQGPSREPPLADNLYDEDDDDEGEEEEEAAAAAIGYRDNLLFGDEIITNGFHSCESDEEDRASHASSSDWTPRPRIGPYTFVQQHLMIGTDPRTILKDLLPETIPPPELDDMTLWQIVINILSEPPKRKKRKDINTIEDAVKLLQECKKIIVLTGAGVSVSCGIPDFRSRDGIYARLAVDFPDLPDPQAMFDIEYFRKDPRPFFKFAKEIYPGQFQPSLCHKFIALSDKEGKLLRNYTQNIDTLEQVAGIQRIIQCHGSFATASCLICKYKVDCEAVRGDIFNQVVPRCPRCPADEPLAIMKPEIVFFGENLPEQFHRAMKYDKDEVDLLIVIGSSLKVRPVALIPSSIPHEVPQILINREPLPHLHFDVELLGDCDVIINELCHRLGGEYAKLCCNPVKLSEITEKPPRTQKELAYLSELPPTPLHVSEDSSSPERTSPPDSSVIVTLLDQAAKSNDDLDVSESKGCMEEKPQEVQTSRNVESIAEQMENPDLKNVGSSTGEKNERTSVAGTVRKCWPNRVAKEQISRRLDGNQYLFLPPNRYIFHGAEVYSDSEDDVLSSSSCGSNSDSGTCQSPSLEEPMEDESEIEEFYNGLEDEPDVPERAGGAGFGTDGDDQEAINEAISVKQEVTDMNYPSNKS
Source text: Lines represent non-linear least-squares fits to the Michaelis-Menten equation. […] Lines represent non-linear least-squares fits to the Michaelis-Menten equation. […] Error bars are standard errors of the mean.
To identify compounds that modulate SIRT1 activity, a number of small molecule libraries were screened using a fluorescent deacetylation assay in 96-well plates^26. The substrate used in the assay was a fluorogenic peptide based on the sequence encompassing the p53-K382 acetylation site, a known target of SIRT1 in vivo^20,21,27. […] The small molecule libraries included analogues of nicotinamide, ε-acetyl lysine, NAD^+, nucleotides, nucleotide analogues and purinergic ligands.
His6-tagged recombinant SIRT1 and GST-tagged recombinant Sir2 were prepared as previously described^26. From 0.1 to 1 μg of SIRT1 and 1.5 μg of Sir2 were used per deacetylation assay (in 50 μl total reaction) as previously described^26.
Themed compound libraries (BIOMOL) were used for primary and secondary screening. Most polyphenol compounds were dissolved at 10 mM in dimethylsulfoxide (DMSO) on the day of the assay. […] Calculation of net fluorescence increases included subtraction of a blank value, which in the case of Sir2 was obtained by omitting the enzyme from the reaction and in the case of SIRT1 by adding an inhibitor (200 μM suramin or 1 mM nicotinamide) to the reaction prior to the acetylated substrate. […]

| Structure (SMILES) | HDAC inhibition (in words) (HDAC) | SIRT1 stimulating activity (in words) (recombinant human SIRT1) |
| --- | --- | --- |
| CCC(=O)CCCCC[C@@H]1NC(=O)[C@H]2CCCCN2C(=O)[C@H]([C@@H](C)CC)NC(=O)[C@H](Cc2cn(OC)c3ccccc23)NC1=O [Apicidin] | nanomolar concentrations | – |
| Oc1ccc(CCc2cc(O)cc(O)c2)cc1 [Dihydroresveratrol] | – | essentially abolishes activity |
